No constants are given. Whether binding was seen depends on the method and setting. Binding seen in cells or lysates may run through a third protein. Some results given as binding are weak or reduced against the parent protein; the word gives no strength. For some of these results: Where a sequence is shown, tags or fusion partners need not be part of it.

The text below walks through data of PMC7494909.

Experiment [1] deals with T1, Flag-tagged Xinβ protein fragment (amino acids 334-1075) (UniProt Q4U4S6).
T1 sequence: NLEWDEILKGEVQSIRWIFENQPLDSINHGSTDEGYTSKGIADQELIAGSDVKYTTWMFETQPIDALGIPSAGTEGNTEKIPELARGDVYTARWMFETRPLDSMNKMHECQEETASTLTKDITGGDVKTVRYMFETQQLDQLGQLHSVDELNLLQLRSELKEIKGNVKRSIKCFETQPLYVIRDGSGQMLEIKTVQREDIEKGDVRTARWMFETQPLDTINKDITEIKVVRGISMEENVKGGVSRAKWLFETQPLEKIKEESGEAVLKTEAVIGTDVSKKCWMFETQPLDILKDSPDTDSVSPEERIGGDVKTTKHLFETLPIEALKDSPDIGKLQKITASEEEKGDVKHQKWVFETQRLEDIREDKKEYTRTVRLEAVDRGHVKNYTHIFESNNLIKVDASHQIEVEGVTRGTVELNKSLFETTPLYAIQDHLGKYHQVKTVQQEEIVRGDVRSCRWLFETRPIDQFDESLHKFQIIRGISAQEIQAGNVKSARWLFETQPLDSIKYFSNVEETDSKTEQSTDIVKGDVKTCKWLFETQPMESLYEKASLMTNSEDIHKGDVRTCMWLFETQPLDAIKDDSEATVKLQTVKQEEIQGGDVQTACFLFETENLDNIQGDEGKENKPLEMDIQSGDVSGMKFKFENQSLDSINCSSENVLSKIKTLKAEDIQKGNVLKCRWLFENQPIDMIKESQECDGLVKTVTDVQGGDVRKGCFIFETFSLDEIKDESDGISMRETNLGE
The experiment can be described thus: co-IP; HEK293T cells transiently transfected, harvested after 48 h in PBS with 0.5% Triton X-100, 1 mM EDTA, 1 mM PMSF and protease inhibitors; precipitated with anti-Flag or anti-GFP antibodies and protein A/G beads; western blot.

For experiment [2], the target named is T2, Flag-tagged Xinβ protein fragment (amino acids 334-680) (UniProt Q4U4S6).
T2 sequence: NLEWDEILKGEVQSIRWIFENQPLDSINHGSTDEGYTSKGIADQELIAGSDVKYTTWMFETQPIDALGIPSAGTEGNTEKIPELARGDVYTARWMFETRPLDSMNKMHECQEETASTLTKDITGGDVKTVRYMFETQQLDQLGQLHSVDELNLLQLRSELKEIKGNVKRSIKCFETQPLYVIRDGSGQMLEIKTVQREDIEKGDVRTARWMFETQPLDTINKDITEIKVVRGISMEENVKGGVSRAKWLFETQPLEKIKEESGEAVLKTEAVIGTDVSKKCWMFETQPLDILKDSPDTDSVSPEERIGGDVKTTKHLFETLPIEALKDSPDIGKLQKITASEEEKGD
The description is as above.

Experiment [3] has as its target endogenous Xinβ (mouse (endogenous in mouse heart)) (UniProt Q4U4S6). Kind of experiment: co-IP; endogenous proteins from WT and Xinβ KO mouse hearts; the precipitating antibody and the conditions are not told.
In experiment [4] the target is T3, GFP-tagged NF2 (neurofibromin 2) (UniProt P46662).
T3 sequence: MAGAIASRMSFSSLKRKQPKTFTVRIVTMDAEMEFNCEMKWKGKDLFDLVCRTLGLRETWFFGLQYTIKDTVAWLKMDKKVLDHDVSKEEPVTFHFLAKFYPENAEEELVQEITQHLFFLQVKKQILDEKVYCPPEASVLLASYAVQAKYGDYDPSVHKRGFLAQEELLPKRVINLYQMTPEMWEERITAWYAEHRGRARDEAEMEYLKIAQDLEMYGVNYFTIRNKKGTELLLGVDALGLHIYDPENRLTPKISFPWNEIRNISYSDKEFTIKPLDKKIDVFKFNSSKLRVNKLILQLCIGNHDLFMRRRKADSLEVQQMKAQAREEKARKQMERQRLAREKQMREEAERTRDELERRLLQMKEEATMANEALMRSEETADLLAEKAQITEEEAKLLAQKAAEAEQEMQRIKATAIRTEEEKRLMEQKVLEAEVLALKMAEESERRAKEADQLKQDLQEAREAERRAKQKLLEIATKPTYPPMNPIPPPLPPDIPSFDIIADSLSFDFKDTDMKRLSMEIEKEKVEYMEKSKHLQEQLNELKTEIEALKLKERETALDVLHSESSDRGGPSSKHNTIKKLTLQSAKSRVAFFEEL
The experiment can be described thus: co-IP; HEK293T cells transiently transfected, harvested after 48 h in PBS with 0.5% Triton X-100, 1 mM EDTA, 1 mM PMSF and protease inhibitors; precipitated with anti-Flag or anti-GFP antibodies and protein A/G beads; western blot.

B1: GFP-tagged NF2 (neurofibromin 2) (protein, UniProt P46662 1-596)
chain: T3 sequence
Regarding B1, the binding result in experiment [1] and in experiment [2] was “binds” each time.

B2: NF2 protein (endogenous, heart) (protein, UniProt P46662 1-596)
chain: T3 sequence
In the case of B2, the binding entry in experiment [3] was “binds”.

B3: Flag-tagged Xinβ protein fragment (amino acids 334-1075) (domain or fragment, UniProt Q4U4S6 334-1075)
chain: T1 sequence
With B3, the binding result in experiment [4] was “binds”.
